For five molecules, binding results are on record in US20100047253A1.

For test [1], the target named is Human IL-13-Mouse IL-13 Helix D (human IL-13 with mouse Helix D). Description: ELISA on secreted IL-13 chimeric proteins.
For test [2] the target is unchanged. Description: ELISA on secreted IL-13 chimeric proteins; '*' denotes that the binding was weak in the sandwich ELISA.

These are yes or no findings as the source states them, for the method shown. Binding can be weak; no strength is given.

B1: mAb 602 (antibody, V domains shown)
VH: EVQLVESGGGLVKPGGSLRLSCAASGFTFSNAWMSWVRQAPGKGLEWVGRIRSKIDGGTINYAAPVKGRFTISRDDSKNTLYLQMNSLKTEDTAVYYCATDQVGAYYGDYYGMDVWGQGTTVTVSS
VL: SYELTQPPSVSVSPGQTARITCSGDALPEKYAYWYQQKSGQAPVLVIYEDTKRPSGIPERFSGSSSGTMATLTISGAQVEDEADYYCYSTDSSGNHGVFGGGTKLTVLG
With B1, in test [1], the binding result is listed as “binds”.

B2: mAb 643 (antibody, V domains shown)
VH: EVQLVESGGGLVKPGGSLRLSCAASGFTFSNAWMSWVRQAPGKGLEWVGRIRSEIDGGTTNYAAPVKGRFTISRDDSKNTLYLQMNSLRTEDTAVYYCATDQVGAYYGDYYGMDVWGQGTTVTVSS
VL: SYELTQPPSVSVSPGQTARITCSGDALPEKYAYWYQQKSGQAPVLVIYEDSKRPSGIPERFSGSSSGTMATLTISGAQVEDEADYYCHSTDSSGNHGVFGGGTKLTVLG
Consider B2, for which the binding entry in test [1] is given as “binds”.

B3: mAb 623 (antibody, V domains shown)
VH: EVQLVESGGGLVKPGGSLRLSCAASGFTFSNAWMSWVRQAPGKGLEWVGRIRSEIDGGTTNYAAPVKGRFTISRDDSKNTLYLQMNSLKTEDTAVYYCATDQVGAYYGDYYGMDVWGQGTTVTVSS
VL: SYELTQPPSVSVSPGQTARITCSGDALPEKYAYWYQQKSGQAPVLVIYEDSKRPSGIPERFSGSSSGTMATLTISGAQVEDEADYYCHSTDSSGNHGVFGGGTKLTVLG
On to B3, for which the binding result in test [1] is on record as “binds”.

B4: mAb 713 (antibody, V domains shown)
VH: EVQLLESGGGLVQPGGSLRLSCAASGFTFSSYAMSWVRQAPGKGLEWVSAFSGSGGSTYYADSVKGRFTISRDNSKNTLYLQMNSLRAEDTAVYYCVQDGLGPYFYNYGMDVWGQGTTVTVSS
VL: SYELTQPPSVSVSPGQTASITCSGDKLGDKYTCWFQQKPGQSPVLVIYHDSKRPSGIPERFSGSNSGDTATLTISGTQAMDEADYYCQAWDSSTYVFGTGTKVTVLG
Take B4: the binding entry in test [2] was “binds”.

B5: mAb 731 (antibody, V domains shown)
VH: EVQLLESGGGLVQPGGSLRLSCAASGFTFSSYAMSWVRQAPGKGLEWVSAFSGSGGSTYYADSVKGRFTISRDNSKNTLYLQMNSLRAEDTAVYYCVQDGLGPYFYNYGMDVWGQGTTVTVSS
VL: SYELTQPPSVSVSPGQTASITCSGDKLGDKYACWFQQKPGQSPVLVIYHDSKRPSGIPERFSGSNSGDTATLTISGTQAMDEADYYCQAWDSSTYVFGTGTKVTVLG
With B5, the binding entry in test [2] is reported as “binds”.
